Reference: patent CN106957364A
Results are given in words; binding and its absence hold for the method and conditions named. Some binding calls cover weakened binding; strength is not graded here.

Protein sequences, listed by entry. Tags and fused reporters are not part of them. Lines headed by an entry give the natural chain unless they say otherwise; changes in a name come on top.
UniProt P55899: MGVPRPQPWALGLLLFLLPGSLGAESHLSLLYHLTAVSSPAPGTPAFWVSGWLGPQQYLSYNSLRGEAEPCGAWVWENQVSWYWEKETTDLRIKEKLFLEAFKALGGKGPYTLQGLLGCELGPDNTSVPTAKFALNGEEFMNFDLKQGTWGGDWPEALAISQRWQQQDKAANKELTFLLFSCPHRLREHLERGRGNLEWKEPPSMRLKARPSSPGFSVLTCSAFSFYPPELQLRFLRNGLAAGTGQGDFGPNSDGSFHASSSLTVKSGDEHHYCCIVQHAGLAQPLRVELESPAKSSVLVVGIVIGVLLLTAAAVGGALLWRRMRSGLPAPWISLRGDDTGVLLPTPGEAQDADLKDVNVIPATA
UniProt P61769: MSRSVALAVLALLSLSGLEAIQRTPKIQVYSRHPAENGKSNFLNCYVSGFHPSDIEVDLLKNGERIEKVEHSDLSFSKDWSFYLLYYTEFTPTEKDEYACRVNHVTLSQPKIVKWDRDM

Assays:
hFcRn&b2M蛋白 (human) [1] = molecular target: T1, hFcRn&b2M蛋白 (human) (UniProt P55899+P61769); assay: SPR (Biacore), hFcRn on CM5 chip, 200nM analyte
hFcRn&b2M蛋白 (human) [2] = molecular target: T1, hFcRn&b2M蛋白 (human); assay: SPR, hFcRn&β2M on CM5 chip, 200nM analyte, pH 6.0 and pH 7.4

binding (hFcRn&b2M蛋白 (human) [1]): binds
binding (hFcRn&b2M蛋白 (human) [2]): binds
B1: 融合蛋白G12 (protein)
chain: HGEGTFTSDVSSYLEEQAAKEFIAWLVKGGGGGGGSGGGGSGGGGSDIQLTQSPSSLSASVGDRVTLTCQATQDIDNNLNWYQQKPGKAPKLLIYDASNLETGVPSRFSGSGSGTDFTFTISDLQPEDVATYYCQQYYNLPLTFGGGTKVDIKRSRGGGGSGGGGSGGGGSLEMAEVQLVQSGAEVKKPGASVKVSCKASGYTFTSYDINWVRQATGQGLEWMGWMNPNSGNTGYAQKFQGRVTMTRNTSISTAYMELSSLRSEDTAVYYCARGVDLGDGWGQGTLVTVSS
